Test results: PubChem BioAssay AID504648 (National Center for Advancing Translational Sciences (NCATS), 2011)
In all, about 390,000 compounds went through this assay and about 610 (0.16%) were called active. This list was built around the results that the source calls inconclusive (neither active nor inactive); the mix of calls is not that of the screen. Calls come from the whole dose curve; as a rule, active = well fitted inhibition curve with a large enough effect; inconclusive = small, poorly fitted or top-dose-only effect, or effect the other way, or another doubt; inactive = no such curve, though single readings can be large or run the other way. A potency beside an inconclusive call is a rough fit, not a confirmed value.

assay: Nrf2 qHTS screen for inhibitors: counterscreen for cytotoxicity; settings: A549 ARE-Fluc cells, CellTiter-Fluor viability, 18-24 h; activity change, negative = cytotoxicity: at 46 µM (top of the series)
How it was run: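 A549 ARE-Fluc cells in 5% FBS OPTI-MEM, 5000 cells/well, rested 2 h then exposed to compounds in concentration-response for 18-24 h at 37 °C. Viability by CellTiter-Fluor fluorescence (Ex 405/Em 525) after 30 min; luciferase luminescence (BugLite, 15 min, RT) read afterwards.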
% is set by controls: 0 for no effect and ±100 for the full control effect; potency is the fitted concentration of half-maximal effect.

| Structure (SMILES) | Potency | activity change, negative = cytotoxicity |
| --- | --- | --- |
| CC(=O)NN1C(=O)c2ccccc2NC1c1ccc([N+](=O)[O-])o1 (stereo not given) | inconclusive: 18.4 µM [falling, single point] | – |
| CN(C(=O)/C=C/c1ccc([N+](=O)[O-])s1)c1ccccc1 | inconclusive: 23.1 µM [falling, single point] | – |
| COC(=O)C1=C(C)N2C(=O)CSC2=NC1c1ccc2c(c1)OCO2 (stereo not given) | inconclusive: 1.84 µM [activator, partial curve, poor fit] | – |
| CCCc1cc(=O)[nH]c(SCC(=O)c2c(N)n(C)c(=O)n(C)c2=O)n1 | inconclusive: 18.4 µM [falling, single point] | – |
| CC(C)(C)c1ccc(S(=O)(=O)c2cnc(SCC(=O)Nc3ccc4c(c3)OCCO4)[nH]c2=O)cc1 | inactive | – |
| Cc1nn(-c2ccccc2)nc1C(=O)c1c(C)[nH]n(-c2ccccc2)c1=O | inconclusive: 23.1 µM [falling, single point] | – |
| O=c1cc(CN2CCN(Cc3ccc(F)cc3)C(CCO)C2)[nH]c2ccccc12 (stereo not given) | inactive | – |
| CN(C)c1cc(N/N=C/c2ccc(Cl)cc2)nc(N(C)C)n1 | inconclusive: 23.1 µM [falling, single point] | – |
| Cc1ccccc1NS(=O)(=O)c1ccc(C(=O)N2CCCC2)cc1 | inactive | – |
| CCCCN(C(=O)CNC(=O)c1ccco1)C(C(=O)NC1CCCCC1)c1cccnc1 (stereo not given) | inactive | – |
| CC(=O)N1CCCc2cc(S(=O)(=O)NCc3ccccc3Cl)ccc21 | inactive | – |
| CCCNC(=O)c1ccc(Cn2cc(-c3ccc(OC)cc3)nc2C(C)N)cc1 (stereo not given) | inactive | – |
| Cc1c(C(=O)N2CCc3ccccc3C2)sc2nc(-c3ccccc3)cn12 | – | inactive: 2.9% [at 1.84 µM] |
| COC(=O)c1cc2ccccc2c([N+](=O)[O-])c1O | inactive | – |
| O=C(NCC1CCCO1)c1ccc(NC(=O)c2cccc(Cl)c2)cc1 (stereo not given) | inconclusive: 6.51 µM [activator, single point] | – |
| COc1cc(C(CCN2CCN(c3ccccc3)CC2)c2c(OC)cc(OC)c3c(C)cc(=O)oc23)cc(OC)c1OC (stereo not given) | inconclusive: 32.6 µM [falling, partial curve, poor fit] | – |
| O=C(CSc1nc(=O)n(Cc2ccco2)c2c1CCC2)Nc1ccccc1C(F)(F)F | inactive | – |
| Cc1cc(C(=O)Nc2ccc(Br)cn2)sc1C | inactive | – |
| COc1ccc(C(=O)N/N=C/c2c(CO)cnc(C)c2O)cc1 | inactive | – |
| CCCC(=O)OCCNc1cc(SCc2ccco2)c2nonc2c1[N+](=O)[O-] | inconclusive: 20.6 µM [falling, single point] | – |
| O=C(Oc1cccc(Nc2ncnc3ccccc23)c1)c1ccccc1Cl | inconclusive: 29.1 µM [falling, partial curve, poor fit] | – |
| CNC(=S)N/N=C/c1c(C)nn(-c2ccccc2)c1Cl | inconclusive: 16.4 µM [activator, partial curve, poor fit] | – |
| CCOc1ccc(Cl)cc1S(=O)(=O)N1CCC(C(=O)N2CCCC2)CC1 | inconclusive: 18.4 µM [falling, single point] | – |
| Cc1sc2nc(C3CC3)nc(SCC(=O)N3c4ccccc4CC3C)c2c1C (stereo not given) | inconclusive: 13 µM [falling, partial curve, poor fit] | – |

| Structure (SMILES) | Potency | activity change, negative = cytotoxicity |
| --- | --- | --- |
| Cc1ccc2cc(CN(Cc3ccco3)C(=O)NCc3ccccc3)c(=O)[nH]c2c1C | inactive | – |
| Cc1cc(C)c(OCCCCNCc2ccccc2)c(Cl)c1 | inconclusive: 29.1 µM [falling, single point] | – |
| Cn1nnnc1Sc1ncnc2scc(-c3cccc(S(C)(=O)=O)c3)c12 | inconclusive: 20.6 µM [falling, single point] | – |
| Cc1ccc(/C=C/C(=O)Nc2cccc3ncccc23)o1 | inactive | – |
| CCCN1CCc2c(sc(NC(=O)C3CCN(S(=O)(=O)c4cccs4)CC3)c2C(N)=O)C1 | inactive | – |
| CCOC(=O)N1CCC(NC(=O)c2ccc(CO)c(C(=O)NC3CCN(C(=O)OCC)CC3)c2)CC1 | inactive | – |
| CC(NS(=O)(=O)c1ccc(Cl)c(Cl)c1)C(=O)Nc1cccnc1 (stereo not given) | inactive | – |
| C=CCC(C(=O)OC)(C(=O)OC)c1ccc(C(F)(F)F)cc1[N+](=O)[O-] | inactive | – |
| CCOc1ccc(-c2nnn(CC(=O)c3cc(OC)ccc3OC)n2)cc1 | inconclusive: 7.31 µM [falling, partial curve, poor fit] | – |
| COc1cc(Cl)c(C)cc1NC(=O)Cn1cc(S(=O)(=O)N2CCC(C)CC2)c2ccccc2c1=O | inactive | – |
| CS(=O)(=O)c1nc([N+](=O)[O-])nn1CCCc1ccccc1 | inactive | – |
| Cc1ccc(N2CCN(S(=O)(=O)c3c(C)[nH]c(=O)[nH]c3=O)CC2C)cc1 (stereo not given) | inactive | – |
| COC(=O)CC(=O)CSc1nc(C)cc(C)c1C#N | inactive | – |
| CC(C)Sc1oc(-c2ccco2)nc1S(=O)(=O)c1ccc(F)cc1 | inactive | – |
| Cc1oncc1-c1csc(-c2ccccc2Cl)n1 | inconclusive: 18.4 µM [activator, partial curve, poor fit] | – |
| Cc1cccc(S(=O)(=O)c2cn(C)c3cc(N4CCN(c5ccc(F)cc5)CC4)c(F)cc3c2=O)c1 | inactive | – |
| O=C(Nc1ccc2c(c1)CCC2)c1cc(S(=O)(=O)Nc2ccc(F)cc2)c(Cl)cc1Cl | inconclusive: 29.1 µM [falling, single point] | – |
| O=C(CSc1c2c(nc3cc(Cl)ccc13)CCCC2)N1CCN(c2ccccc2)CC1 | inconclusive: 23.1 µM [falling, single point] | – |
| N#C/C(=C/c1cn(-c2ccccc2)nc1-c1cccc(OCc2ccccc2)c1)C(=O)NCCCn1ccnc1 | inconclusive: 29.1 µM [falling, single point] | – |
| CCOc1cc(/C=C2\SC(=NC)N(C)C2=O)cc(Cl)c1OC(C)=O | inconclusive: 25.9 µM [falling, partial curve, poor fit] | – |
| COc1ccccc1C(=O)Oc1ccc(C(C)(C)C)cc1 | inconclusive: 11.6 µM [falling, partial curve, poor fit] | – |
| CCc1cc2c(CN3CCN(C)CC3)cc(=O)oc2cc1O | inconclusive: 25.9 µM [activator, single point] | – |
| Cc1nc2ccccc2c2oc(C(=O)NCC3COc4ccccc4O3)cc12 (stereo not given) | inactive | – |
| Oc1cc(-c2ccc(N3CCCCC3)nc2)cc2cccnc12 | inconclusive: 32.6 µM [falling, partial curve, poor fit] | – |

Gathered by group, those above with a CF3 group (2)

| Structure (SMILES) | Potency | activity change, negative = cytotoxicity |
| --- | --- | --- |
| O=C(CSc1nc(=O)n(Cc2ccco2)c2c1CCC2)Nc1ccccc1C(F)(F)F | inactive | – |
| C=CCC(C(=O)OC)(C(=O)OC)c1ccc(C(F)(F)F)cc1[N+](=O)[O-] | inactive | – |

(further entries)

| Structure (SMILES) | Potency | activity change, negative = cytotoxicity |
| --- | --- | --- |
| Cc1cc(C)cc(NC(=O)Cn2c(=O)oc3cc(S(=O)(=O)N4CCC(C)CC4)ccc32)c1 | inactive | – |
| O=C(COC(=O)c1cnccn1)c1ccc2c(c1)CCCC2 | inconclusive: 0.58 µM [activator, single point] | – |
| N#Cc1c(NC(=O)CN2CCCCC2)sc2c1CCC2 | inconclusive: 20.6 µM [activator, partial curve, poor fit] | – |
| Cc1ccccc1N(C(=O)Cn1nnc(-c2cccs2)n1)C(C(=O)NCCC(C)C)c1ccco1 (stereo not given) | inconclusive: 25.9 µM [falling, single point] | – |
| COc1ccc(NS(=O)(=O)c2ccc3[nH]c(=O)ccc3c2)cc1OC | inconclusive: 23.1 µM [falling, partial curve, poor fit] | – |
| COc1ccccc1C(=O)Oc1c(Sc2ccccc2)c(C)nn1-c1ccccc1 | inconclusive: 29.1 µM [falling, partial curve, poor fit] | – |
| Cc1ccc(NC(=O)C2CCN(c3ncnc4c3nc3n4CCCCC3)CC2)cc1Cl | inconclusive: 16.4 µM [falling, single point] | – |
| CCOC(=O)c1ccc(N2C(=O)C(CC(=O)NC)N(CCc3ccc(OC)c(OC)c3)C2=S)cc1 (stereo not given) | inactive | – |
| O=C1CC(N(CCc2ccccc2)C(=S)Nc2ccccc2)C(=O)N1c1ccccc1 (stereo not given) | inconclusive: 29.1 µM [falling, single point] | – |
| CCn1c(=O)c(C(=O)Nc2ccccc2S(N)(=O)=O)c(O)c2ccccc21 | inconclusive: 18.4 µM [falling, partial curve] | – |
| O=C(NCc1ccccc1Cl)c1c2c(nc3ccccc13)C(=O)N(C1CCCCC1)C2 | inconclusive: 32.6 µM [falling, partial curve, poor fit] | – |
| Cc1ccc(C)c(N2CCN(CCCNC(=O)c3cnn(-c4ccccc4)c3C3CCN(C(=O)OC(C)(C)C)CC3)CC2)c1 | inconclusive: 20.6 µM [falling, single point] | – |
| O=C(Nc1cccc(C(F)(F)F)c1)c1cc(-c2cccs2)on1 | inactive | – |
| CCOc1ccccc1N1CC(C(=O)Nc2ccc(S(=O)(=O)N3CCCCC3)cc2)CC1=O (stereo not given) | inactive | – |
| CCN(CC)S(=O)(=O)c1ccc2oc(C(=O)N3CCCCCC3)c(C)c2c1 | inactive | – |
| CCOC(=O)c1c(C)[nH]c(C2=NNC(=Nc3ccccc3)SC2)c1C | inconclusive: 13 µM [falling, partial curve] | – |
| Cc1ccc(N(C(=O)Cc2c[nH]c3ccccc23)C(C(=O)NC2CCCCC2)c2ccco2)cc1 (stereo not given) | inconclusive: 16.4 µM [falling, single point] | – |
| COc1ccccc1Nc1c2c(nc3ccc(NC(=O)c4ccccc4F)cc13)CCCC2 | inconclusive: 18.4 µM [falling, single point] | – |
| O=C(CN1CCCCC1)Nc1cc(Cl)ccc1Oc1ccccc1 | inactive | – |
| C/C(=N\NC(=S)NCc1ccccc1)c1ccc2c(c1)OCCO2 | inconclusive: 18.4 µM [falling, single point] | – |
| COc1ccc([C@H]2CC(=O)C=C(c3ccc(Cl)c(C(F)(F)F)c3)C2)cc1 | inactive | – |
| Cc1nn(Cc2ccc(Cl)cc2)c(C)c1NC(=O)CCCn1nc(C)c([N+](=O)[O-])c1C | inconclusive: 32.6 µM [falling, partial curve, poor fit] | – |

Complete entries as entered above. Values in the order: Potency | activity change, negative = cytotoxicity
O=C(Nc1cccc(C(F)(F)F)c1)c1cc(-c2cccs2)on1 as listed: inactive | –
N#Cc1c(NC(=O)CN2CCCCC2)sc2c1CCC2 as listed: inconclusive: 20.6 µM [activator, partial curve, poor fit] | –
